PubChem BioAssay AID504764, Drosophila RNAi Screening Center, 2011
The deposit covers about 22,000 reagents; below is a random part of those with a known target gene and a result. Of all reagents, 403 (1.9%) got an active call. 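Unnormalised raw counts per well; ratio z-scores behind the hit calls and whether each hit raises or lowers signal are not deposited.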 Not given: the amount of reagent.

Test: 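Knock-downs that raise or lower a Notch target reporter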 (primary screen)
Cells: Drosophila Kc167 cells
Knock-down reagent: long dsRNA against Drosophila genes
Timing: about 5 days (4 days dsRNA, then 24 h after transfection)
Conditions: transfection of constitutively active membrane-tethered Notch lacking the extracellular domain, read 24 h later
Read-out: 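Light from a Notch-responsive E(spl)m3 luciferase reporter under active Notch, with control-promoter and no-Notch reporter wells to normalise; raw counts from paired wells a and b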
Reading the numbers: induced reporter light, run 1, well a and induced reporter light, run 1, well b: higher = more light from the Notch target reporter with active Notch; control promoter light, run 1, well a and control promoter light, run 1, well b: higher = more light from the viral control promoter (cell number, transfection, viability); uninduced reporter light, run 1, well a: higher = more light from the Notch target reporter without active Notch
Rule for the call: 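Wells with low control signal or poorly matching duplicates excluded; duplicates averaged; per source plate, z beyond ±2 for induced/control log2 ratio or beyond ±1.8 for induced/uninduced marks a hit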
Meaning of the calls: active = modifier hit (raised or lowered Notch signal); inactive = not a hit

CG7377 [DRSC10830]
- induced reporter light, run 1, well a: 1.53e5
- induced reporter light, run 1, well b: 1.26e5
- control promoter light, run 1, well a: 3.16e5
- control promoter light, run 1, well b: 1.80e5
- uninduced reporter light, run 1, well a: 7160
- Outcome: inactive

l(3)mbn (lethal (3) malignant blood neoplasm) [DRSC08793]
- induced reporter light, run 1, well a: 2.31e5
- induced reporter light, run 1, well b: 2.09e5
- control promoter light, run 1, well a: 2.44e5
- control promoter light, run 1, well b: 2.55e5
- uninduced reporter light, run 1, well a: 15555
- Outcome: inactive

CG3635 [DRSC03729]
- induced reporter light, run 1, well a: 52760
- induced reporter light, run 1, well b: 54820
- control promoter light, run 1, well a: 46400
- control promoter light, run 1, well b: 68195
- uninduced reporter light, run 1, well a: 3655
- Outcome: inactive

Aprt (Adenine phosphoribosyltransferase) [DRSC08139]
- induced reporter light, run 1, well a: 93645
- induced reporter light, run 1, well b: 96085
- control promoter light, run 1, well a: 1.11e5
- control promoter light, run 1, well b: 1.46e5
- uninduced reporter light, run 1, well a: 6365
- Outcome: inactive

Mkp3 (Mitogen-activated protein kinase phosphatase 3) [DRSC10084]
- induced reporter light, run 1, well a: 1.33e5
- induced reporter light, run 1, well b: 1.39e5
- control promoter light, run 1, well a: 94385
- control promoter light, run 1, well b: 94895
- uninduced reporter light, run 1, well a: 8530
- Outcome: inactive

Mkp3 (Mitogen-activated protein kinase phosphatase 3) [DRSC10085]
- induced reporter light, run 1, well a: 1.05e5
- induced reporter light, run 1, well b: 97845
- control promoter light, run 1, well a: 1.04e5
- control promoter light, run 1, well b: 89560
- uninduced reporter light, run 1, well a: 8900
- Outcome: inactive

Atg14 (Autophagy-related 14) [DRSC14421]
- induced reporter light, run 1, well a: 1.65e5
- induced reporter light, run 1, well b: 1.55e5
- control promoter light, run 1, well a: 2.26e5
- control promoter light, run 1, well b: 2.48e5
- uninduced reporter light, run 1, well a: 11870
- Outcome: inactive

Gsc (Goosecoid) [DRSC00755]
- induced reporter light, run 1, well a: 84760
- induced reporter light, run 1, well b: 91165
- control promoter light, run 1, well a: 78005
- control promoter light, run 1, well b: 36985
- uninduced reporter light, run 1, well a: 7595
- Outcome: inactive

VhaSFD (Vacuolar H[+]-ATPase SFD subunit) [DRSC03471]
- induced reporter light, run 1, well a: 1.89e5
- induced reporter light, run 1, well b: 1.88e5
- control promoter light, run 1, well a: 1.82e5
- control promoter light, run 1, well b: 1.73e5
- uninduced reporter light, run 1, well a: 11132
- Outcome: active

ena (enabled) [DRSC05779]
- induced reporter light, run 1, well a: 1.20e5
- induced reporter light, run 1, well b: 1.12e5
- control promoter light, run 1, well a: 1.42e5
- control promoter light, run 1, well b: 1.09e5
- uninduced reporter light, run 1, well a: 8525
- Outcome: inactive

ena (enabled) [DRSC07610]
- induced reporter light, run 1, well a: 77900
- induced reporter light, run 1, well b: 76195
- control promoter light, run 1, well a: 1.23e5
- control promoter light, run 1, well b: 1.71e5
- uninduced reporter light, run 1, well a: 6640
- Outcome: inactive

CG15115 [DRSC06537]
- induced reporter light, run 1, well a: 1.85e5
- induced reporter light, run 1, well b: 1.37e5
- control promoter light, run 1, well a: 2.30e5
- control promoter light, run 1, well b: 2.57e5
- uninduced reporter light, run 1, well a: 13670
- Outcome: inactive

2 entries already listed, sorted by “induced reporter light, run 1, well a”, high to low.
Atg14 (Autophagy-related 14) [DRSC14421]
- induced reporter light, run 1, well a: 1.65e5
- induced reporter light, run 1, well b: 1.55e5
- control promoter light, run 1, well a: 2.26e5
- control promoter light, run 1, well b: 2.48e5
- uninduced reporter light, run 1, well a: 11870
- Outcome: inactive

Gsc (Goosecoid) [DRSC00755]
- induced reporter light, run 1, well a: 84760
- induced reporter light, run 1, well b: 91165
- control promoter light, run 1, well a: 78005
- control promoter light, run 1, well b: 36985
- uninduced reporter light, run 1, well a: 7595
- Outcome: inactive

Continued.
CG6923 [DRSC16136]
- induced reporter light, run 1, well a: 1.29e5
- induced reporter light, run 1, well b: 1.29e5
- control promoter light, run 1, well a: 84930
- control promoter light, run 1, well b: 73870
- uninduced reporter light, run 1, well a: 9505
- Outcome: inactive

Sfp53D (Seminal fluid protein 53D) [DRSC05625]
- induced reporter light, run 1, well a: 80230
- induced reporter light, run 1, well b: 85620
- control promoter light, run 1, well a: 1.04e5
- control promoter light, run 1, well b: 74290
- uninduced reporter light, run 1, well a: 6055
- Outcome: inactive

Rep (Rab escort protein) [DRSC07526]
- induced reporter light, run 1, well a: 40330
- induced reporter light, run 1, well b: 40665
- control promoter light, run 1, well a: 52955
- control promoter light, run 1, well b: 66350
- uninduced reporter light, run 1, well a: 3175
- Outcome: inactive

CG31031 (retired record) [DRSC13964]
- induced reporter light, run 1, well a: 1.94e5
- induced reporter light, run 1, well b: 2.36e5
- control promoter light, run 1, well a: 2.16e5
- control promoter light, run 1, well b: 2.20e5
- uninduced reporter light, run 1, well a: 22125
- Outcome: active

EMC10 (ER membrane protein complex subunit 10) [DRSC11850]
- induced reporter light, run 1, well a: 92295
- induced reporter light, run 1, well b: 1.39e5
- control promoter light, run 1, well a: 99995
- control promoter light, run 1, well b: 1.02e5
- uninduced reporter light, run 1, well a: 8078
- Outcome: inactive

CG4950 [DRSC10463]
- induced reporter light, run 1, well a: 2.11e5
- induced reporter light, run 1, well b: 2.25e5
- control promoter light, run 1, well a: 2.66e5
- control promoter light, run 1, well b: 2.75e5
- uninduced reporter light, run 1, well a: 12910
- Outcome: inactive
